From article PMC6588547
No constants are given. Whether binding was seen depends on the method and setting. For some of these results: Binding calls can cover weak binding; strength is not graded here. Tags and fused reporters may be left off the sequences shown. Each block holds one molecule with its values, some of them ahead of it.

Key:
Assay in all cases: two-hybrid; SLR1 and its truncations fused with GAL4 BD (pGBKT7), MOC1 and its truncations fused with GAL4 AD (pGADT7); tested on SD/-Trp/-Leu/-His/-Ade/X-α-Gal medium
[1] = target: T1, SLENDER RICE 1 (SLR1), full length, fused with GAL4 BD (rice (Oryza sativa L. spp. Japonica)) (UniProt Q7G7J6)
T1 sequence: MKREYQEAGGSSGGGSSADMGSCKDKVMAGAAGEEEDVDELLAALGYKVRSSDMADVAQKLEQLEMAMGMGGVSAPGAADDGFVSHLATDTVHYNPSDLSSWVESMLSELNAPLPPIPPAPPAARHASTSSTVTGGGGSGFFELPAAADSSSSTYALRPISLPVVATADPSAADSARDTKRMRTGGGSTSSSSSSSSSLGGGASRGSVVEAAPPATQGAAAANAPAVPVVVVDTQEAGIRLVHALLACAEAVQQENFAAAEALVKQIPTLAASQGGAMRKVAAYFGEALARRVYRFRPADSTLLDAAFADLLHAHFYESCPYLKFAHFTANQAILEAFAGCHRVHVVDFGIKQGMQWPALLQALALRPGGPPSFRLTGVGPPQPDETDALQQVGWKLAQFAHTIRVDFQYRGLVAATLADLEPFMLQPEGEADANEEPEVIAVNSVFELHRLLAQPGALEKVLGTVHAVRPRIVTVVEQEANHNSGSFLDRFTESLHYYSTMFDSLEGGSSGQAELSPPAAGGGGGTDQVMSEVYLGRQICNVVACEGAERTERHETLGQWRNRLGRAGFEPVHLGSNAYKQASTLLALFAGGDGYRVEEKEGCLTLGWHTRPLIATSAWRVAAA

[2] = target: SLR1 truncation lacking the polyS/T/V motif, fused with GAL4 BD (rice (Oryza sativa L. spp. Japonica))
[3] = target: SLR1 truncation lacking the DELLA motif, fused with GAL4 BD (rice (Oryza sativa L. spp. Japonica))
[4] = target: SLR1 with the entire GRAS domain deleted, fused with GAL4 BD (rice (Oryza sativa L. spp. Japonica))
[5] = target: SLR1 truncation lacking the TVHYNP motif, fused with GAL4 BD (rice (Oryza sativa L. spp. Japonica))

Molecule: MOC1 truncation lacking the LHRI motif, fused with GAL4 AD (rice (Oryza sativa L. spp. Japonica)) (domain or fragment)
binding [1]: binds

Molecule: MOC1 truncation lacking the LHRII motif, fused with GAL4 AD (rice (Oryza sativa L. spp. Japonica)) (domain or fragment)
binding [1]: binds

Molecule: MOC1 truncation lacking the SAW motif, fused with GAL4 AD (rice (Oryza sativa L. spp. Japonica)) (domain or fragment)
binding [1]: binds

Molecule: MOC1 truncation lacking the VHIID motif, fused with GAL4 AD (rice (Oryza sativa L. spp. Japonica)) (domain or fragment)
binding [1]: binds

B1: MONOCULM 1 (MOC1), full length, fused with GAL4 AD (protein, UniProt Q84MM9 1-441)
chain: MLRSLHSSSSSDTDNNSGGCKNNGGGGGEAAAAVEGGGDQRAVAAAAPSTRDLLLACADLLQRGDLPAARRAAEIVLAAAASPRGDAADRLAYHFARALALRVDAKAGHGHVVVGGGAARPASSGAYLAFNQIAPFLRFAHLTANQAILEAVDGARRVHILDLDAVHGVQWPPLLQAIAERADPALGPPEVRVTGAGADRDTLLRTGNRLRAFARSIHLPFHFTPLLLSCATTAPHHVAGTSTGAAAAASTAAAATGLEFHPDETLAVNCVMFLHNLAGHDELAAFLKWVKAMSPAVVTIAEREAGGGGGGGDHIDDLPRRVGVAMDHYSAVFEALEATVPPGSRERLAVEQEVLGREIEAAVGPSGGRWWRGIERWGGAARAAGFAARPLSAFAVSQARLLLRLHYPSEGYLVQEARGACFLGWQTRPLLSVSAWQPSSS
binding [2]: binds
binding [3]: binds
binding [4]: no binding
binding [5]: binds

Other lines, results leading:

binding [1]: binds
Molecule: MOC1 truncation lacking the PFYRE motif, fused with GAL4 AD (rice (Oryza sativa L. spp. Japonica)) (domain or fragment)

binding [1]: no binding
Molecule: MOC1 with the entire GRAS domain deleted, fused with GAL4 AD (rice (Oryza sativa L. spp. Japonica)) (domain or fragment)
